The record followed here is paper PMC8558480.

By UniProt entry, the sequences of proteins in these tests, tags left out.
UniProt Q6ZQ08: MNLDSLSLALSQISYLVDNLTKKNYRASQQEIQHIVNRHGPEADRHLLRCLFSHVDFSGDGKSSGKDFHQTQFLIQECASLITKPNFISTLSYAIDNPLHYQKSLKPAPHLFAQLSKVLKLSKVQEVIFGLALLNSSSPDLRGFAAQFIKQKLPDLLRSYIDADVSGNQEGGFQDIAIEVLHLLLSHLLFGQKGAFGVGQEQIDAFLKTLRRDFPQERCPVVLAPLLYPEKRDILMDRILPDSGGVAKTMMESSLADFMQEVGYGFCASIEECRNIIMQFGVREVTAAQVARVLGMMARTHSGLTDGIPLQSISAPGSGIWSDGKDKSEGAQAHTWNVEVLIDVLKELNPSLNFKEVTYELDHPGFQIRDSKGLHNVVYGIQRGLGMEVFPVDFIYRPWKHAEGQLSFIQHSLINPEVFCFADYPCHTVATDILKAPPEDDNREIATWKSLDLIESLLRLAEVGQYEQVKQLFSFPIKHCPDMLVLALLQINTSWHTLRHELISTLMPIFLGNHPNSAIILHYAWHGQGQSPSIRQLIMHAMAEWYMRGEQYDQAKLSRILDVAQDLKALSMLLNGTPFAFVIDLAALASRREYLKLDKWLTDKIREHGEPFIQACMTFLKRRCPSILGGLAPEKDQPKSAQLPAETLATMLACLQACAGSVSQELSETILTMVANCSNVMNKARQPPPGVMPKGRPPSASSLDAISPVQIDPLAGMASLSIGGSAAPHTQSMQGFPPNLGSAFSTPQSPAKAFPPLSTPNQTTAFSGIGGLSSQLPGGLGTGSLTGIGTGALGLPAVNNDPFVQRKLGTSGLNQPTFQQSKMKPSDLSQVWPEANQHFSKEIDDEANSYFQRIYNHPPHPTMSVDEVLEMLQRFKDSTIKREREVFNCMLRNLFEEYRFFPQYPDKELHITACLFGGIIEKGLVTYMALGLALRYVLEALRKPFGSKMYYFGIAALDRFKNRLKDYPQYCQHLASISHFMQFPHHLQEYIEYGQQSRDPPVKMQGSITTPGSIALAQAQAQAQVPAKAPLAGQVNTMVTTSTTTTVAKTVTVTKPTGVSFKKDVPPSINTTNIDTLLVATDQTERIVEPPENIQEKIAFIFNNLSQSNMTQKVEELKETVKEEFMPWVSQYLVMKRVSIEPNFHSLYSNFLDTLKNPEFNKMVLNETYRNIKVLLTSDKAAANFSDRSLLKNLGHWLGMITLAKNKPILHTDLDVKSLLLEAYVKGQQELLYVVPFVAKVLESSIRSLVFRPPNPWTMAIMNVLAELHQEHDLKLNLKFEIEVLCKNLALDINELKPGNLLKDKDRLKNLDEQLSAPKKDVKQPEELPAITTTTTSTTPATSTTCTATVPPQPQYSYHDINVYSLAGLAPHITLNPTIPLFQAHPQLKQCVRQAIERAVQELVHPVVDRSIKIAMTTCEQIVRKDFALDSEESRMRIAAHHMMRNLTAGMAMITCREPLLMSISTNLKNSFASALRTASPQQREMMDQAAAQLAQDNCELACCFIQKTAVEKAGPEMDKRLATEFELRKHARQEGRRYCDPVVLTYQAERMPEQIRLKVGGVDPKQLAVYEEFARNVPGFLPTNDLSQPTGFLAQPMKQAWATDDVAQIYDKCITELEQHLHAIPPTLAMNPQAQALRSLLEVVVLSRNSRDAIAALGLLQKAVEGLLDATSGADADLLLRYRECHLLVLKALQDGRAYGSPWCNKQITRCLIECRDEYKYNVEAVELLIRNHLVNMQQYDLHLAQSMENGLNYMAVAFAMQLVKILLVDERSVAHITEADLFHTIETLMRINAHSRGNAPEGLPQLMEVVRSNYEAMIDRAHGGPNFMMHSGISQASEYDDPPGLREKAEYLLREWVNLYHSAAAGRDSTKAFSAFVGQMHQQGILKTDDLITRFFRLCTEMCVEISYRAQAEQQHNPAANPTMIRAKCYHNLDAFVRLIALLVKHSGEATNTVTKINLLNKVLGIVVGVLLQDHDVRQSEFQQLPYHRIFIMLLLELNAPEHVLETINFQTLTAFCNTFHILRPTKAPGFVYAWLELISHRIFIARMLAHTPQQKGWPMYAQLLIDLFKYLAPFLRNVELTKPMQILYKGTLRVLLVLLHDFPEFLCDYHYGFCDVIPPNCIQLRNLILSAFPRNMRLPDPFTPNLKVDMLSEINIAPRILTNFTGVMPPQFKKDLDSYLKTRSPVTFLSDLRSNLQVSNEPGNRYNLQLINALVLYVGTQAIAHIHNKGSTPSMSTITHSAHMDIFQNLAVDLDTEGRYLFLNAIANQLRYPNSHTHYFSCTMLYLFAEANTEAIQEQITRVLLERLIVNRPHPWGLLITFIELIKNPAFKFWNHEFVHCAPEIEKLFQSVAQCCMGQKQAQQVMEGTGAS

The experiment deals with T1, GST-tagged Tex13a (mouse) (UniProt A2AFS9).
T1 sequence: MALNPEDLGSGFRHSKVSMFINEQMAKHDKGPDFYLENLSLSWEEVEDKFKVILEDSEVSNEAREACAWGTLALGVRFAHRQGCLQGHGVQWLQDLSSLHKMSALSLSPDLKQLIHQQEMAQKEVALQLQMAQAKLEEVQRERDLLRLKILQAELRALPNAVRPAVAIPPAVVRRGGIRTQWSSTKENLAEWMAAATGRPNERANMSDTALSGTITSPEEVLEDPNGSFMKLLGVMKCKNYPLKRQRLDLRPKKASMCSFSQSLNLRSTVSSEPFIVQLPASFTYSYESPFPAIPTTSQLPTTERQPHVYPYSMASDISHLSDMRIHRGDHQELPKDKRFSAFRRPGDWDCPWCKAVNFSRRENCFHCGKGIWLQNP
As to the kind of experiment: pull-down; GST-tagged Tex13a beads incubated for 3 h on ice with mouse testis homogenates in mild lysis buffer (50 mM Tris pH 7.4, 150 mM NaCl, 0.1% Triton X-100); anti-Cnot1 Western blot; only the target purified. For orientation: In western blotting, separated proteins are transferred to a membrane and probed.

Results are given in words; binding and its absence hold for the method and conditions named. Binding seen in cells or lysates may run through a third protein. Some entries that bind do so weakly or less than the wild type. Sequences can lack the tags named with a protein.

Take “Endogenous Cnot1 of mouse testes (from UniProt Q6ZQ08 1-2375)”: the binding entry is “binds”.
